This test has as its target T1, endogenous CHMP7 (human (endogenous in Tet-VPS4B^E235Q-mVenus glioblastoma cells)) (UniProt Q8WUX9).
T1 sequence: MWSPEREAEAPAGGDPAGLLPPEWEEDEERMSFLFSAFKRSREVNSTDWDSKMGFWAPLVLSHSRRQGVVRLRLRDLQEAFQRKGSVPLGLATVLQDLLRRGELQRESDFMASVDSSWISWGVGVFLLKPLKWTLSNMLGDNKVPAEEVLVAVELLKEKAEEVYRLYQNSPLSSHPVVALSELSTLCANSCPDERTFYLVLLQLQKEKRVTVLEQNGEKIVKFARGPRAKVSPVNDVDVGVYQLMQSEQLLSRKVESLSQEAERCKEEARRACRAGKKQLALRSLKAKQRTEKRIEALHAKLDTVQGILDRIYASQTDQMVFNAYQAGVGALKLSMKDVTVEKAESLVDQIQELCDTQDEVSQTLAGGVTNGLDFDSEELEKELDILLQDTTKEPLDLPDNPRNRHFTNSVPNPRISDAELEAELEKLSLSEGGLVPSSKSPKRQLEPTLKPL
Put plainly: co-IP; lysate of Tet-VPS4B^E235Q-mVenus cells in the absence (DOX-) and presence (DOX+) of DOX; precipitated with anti-CHMP7 antibodies; normal rabbit IgG as negative control; VPS4B^E235Q-mVenus detected with anti-GFP antibodies.

These are yes or no findings as the source states them, for the method shown. Binding seen in cells or lysates may run through a third protein. Some binding calls cover weakened binding; strength is not graded here.

B1: VPS4B^E235Q-mVenus (enzyme, UniProt O75351 1-444)
chain: MSSTSPNLQKAIDLASKAAQEDKAGNYEEALQLYQHAVQYFLHVVKYEAQGDKAKQSIRAKCTEYLDRAEKLKEYLKNKEKKAQKPVKEGQPSPADEKGNDSDGEGESDDPEKKKLQNQLQGAIVIERPNVKWSDVAGLEGAKEALKEAVILPIKFPHLFTGKRTPWRGILLFGPPGTGKSYLAKAVATEANNSTFFSISSSDLVSKWLGESEKLVKNLFQLARENKPSIIFIDQIDSLCGSRSENESEAARRIKTEFLVQMQGVGVDNDGILVLGATNIPWVLDSAIRRRFEKRIYIPLPEPHARAAMFKLHLGTTQNSLTEADFRELGRKTDGYSGADISIIVRDALMQPVRKVQSATHFKKVRGPSRADPNHLVDDLLTPCSPGDPGAIEMTWMDVPGDKLLEPVVSMSDMLRSLSNTKPTVNEHDLLKLKKFTEDFGQEG
For the molecule B1, the binding entry is listed as “binds”.
